These are yes or no findings as the source states them, for the method shown. In cells and extracts the contact can be indirect. Binding can be weak; no strength is given. Sequences can lack the tags named with a protein.
Biological target: cucumber mosaic virus (Fny strain) 2a protein fused to a split YFP half (cucumber mosaic virus, strain Fny)
Assay: split reporter; sYFPn and sYFPc fusions co-agroinfiltrated into N. benthamiana leaves, YFP fluorescence by confocal laser scanning microscopy

B1: cucumber mosaic virus (Fny strain) 1a protein fused to a split YFP half (protein, UniProt P17769 1-993)
chain: MATSSFNINELVASHGDKGLLATALVDKTAHEQLEEQLQHQRRGRKVYIRNVLGVKDSEVIRNRYGGKYDLHLTQQEFAPHGLAGALRLCETLDCLDSFPSSGLRQDLVLDFGGSWVTHYLRGHNVHCCSPCLGIRDKMRHAERLMNMRKIILNDPQQFDGRQPDFCTQPAADCKVQAHFAISIHGGYDMGFRGLCEAMNAHGTTILKGTMMFDGAMMFDDQGVIPELNCQWRKIRSAFSETEDVTPLVGKLNSTVFSRVRKFKTMVAFDFINESTMSYVHDWENIKSFLTDQTYSYRGMTYGIERCVIHAGIMTYKIIGVPGMCPPELIRHCIWFPSIKDYVGLKIPASQDLVEWKTVRILTSTLRETEEIAMRCYNDKKAWMEQFKVILGVLSAKSSTIVINGMSMQSGERIDINDYHYIGFAILLHTKMKYEQLGKMYDMWNASSISKWFAALTRPLRVFFSSVVHALFPTLRPREEKEFLIKLSTFVTFNEECSFDGGEEWDVISSAAYVATQAVTDGKILAAQKAEKLAEKLAQPVSEVSDSPETSSQTPDDTADVCGREREVSELDSLSAQTRSPITRVAERATAMLEYAAYEKQLHDTTVSNLKRIWNMAGGDDKRNSLEGNLKFVFDTYFTVDPMVNIHFSTGRWMRPVPEGIVYSVGYNERGLGPKSDGELYIVNSECVICNSESLSTVTRSLQAPTGTISQVDGVAGCGKTTAIKSIFEPSTDMIVTANKKSAQDVRMALFKSSDSKEACTFVRTADSVLLNECPTVSRVLVDEVVLLHFGQLCAVMSKLKAVRAICFGDSEQIAFSSRDASFDMRFSKIIPDETSDADTTFRSPQDVVPLVRLMATKALPKGTHSKYTKWVSQSKVKRSVTSRAIASVTLVDLDSSRFYITMTQADKASLISRAKEMNLPKTFWNERIKTVHESQGISEDHVTLVRLKSTKCDLFKQFSYCLVALTRHKVTFRYEYCGVLNGDLIAECVARA
binding: binds

Reference: PMC7738167
